Drawing on paper PMC6158030, this text covers binding for five substances.

No constants are given. Whether binding was seen depends on the method and setting. Binding calls can cover weak binding; strength is not graded here. Tags and fused reporters may be left off the sequences shown. For some assays here: Binding seen in cells or lysates may run through a third protein.

For experiment [1], the target named is T1, GST-PID1 fusion protein (murine phosphotyrosine interacting domain-containing protein 1) (mouse) (UniProt Q3UBG2).
T1 sequence: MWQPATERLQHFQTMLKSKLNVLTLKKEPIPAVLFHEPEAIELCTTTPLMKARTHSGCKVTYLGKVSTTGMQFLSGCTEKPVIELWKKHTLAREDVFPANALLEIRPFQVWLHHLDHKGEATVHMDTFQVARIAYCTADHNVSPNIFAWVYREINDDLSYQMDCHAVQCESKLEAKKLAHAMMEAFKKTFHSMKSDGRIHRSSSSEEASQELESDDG
Briefly: pull-down; GST-PID1 incubated over night at 4 °C with liver lysates (150 μg) of wild type, LRP1 knockin or liver-specific Lrp1-/- mice; washed six times with PBS; Western blot; only the target purified. Background: A western blot detects proteins with antibodies after separation by electrophoresis.

Experiment [2] has as its target T1, GST-PID1 fusion protein (murine phosphotyrosine interacting domain-containing protein 1) (mouse). Briefly: pull-down; GST-PID1 on Glutathion Sepharose with recombinant wild type and mutant LRP1-ICDs; pellets washed six times with PBS; Western blot of pulldown and unbound fractions; both purified.

On to “LDL receptor-related protein 1 (LRP1), endogenous in wild type mouse liver”, for which the binding result in experiment [1] is recorded as “binds”.
Take “LRP1-ICD lacking the functional distal NPxY domain (N2) (domain or fragment)”: the binding result in experiment [2] is “no binding”.
Regarding “LRP1-ICD lacking both functional NPxY domains (N1/2) (domain or fragment)”, the binding entry in experiment [2] is “no binding”.
Turning to “LRP1-ICD lacking the functional proximal NPxY domain (N1) (domain or fragment)”, in experiment [2], the binding entry is given as “binds”.
Take “LRP1 with a mutated distal NPxY motif, endogenous in liver of LRP1 knockin mice (mouse (endogenous in liver)) (receptor)”: the binding entry in experiment [1] was “no binding”.
